From US7041283B1, “Methods of using immunophilin binding drugs to improve integration and survival of neuronal cell transplants” (University of Pittsburgh-Of the Commonwealth System of …, priority 2001, dated 2006)
For at least one compound, name, drawing or mass did not settle the structure.

Tests used:
[1] = system: second trimester human fetal neuroglial cultures; test: Second trimester human fetal neuroglial cultures treated with FK506 and/or BDNF; MAP-2/GFAP immunostaining and propidium iodide cell counts by laser confocal microscopy; format: cell-based
Description: Surgical pathology fetal specimens were collected and processed in accordance with the University of Pittsburgh Human Tissue Committee guidelines. Human telencephalic tissues (18-21 weeks of gestation) were collected and placed in DMEM medium (Life Technologies Inc., Grand Island, N.Y.). […] Tissue processing followed a modified mouse brain dissociation protocol. Within 1 hour of collection, the brain material was placed in Ca^++-and Mg^++-free DPBS (Life Technologies), cleaned of meninges, rinsed and minced. Tissue fragments were incubated in 0.05% trypsin-EDTA with additives (Life Technologies) for 5 min at 37° C. and further dissociated. Trypsin inhibitor (10 mg/ml; Sigma, St. Louis, Mo.) was subsequently added, followed by centrifugation for 5 min at 250×g. After filtering through 70 μm nylon-mesh cell strainers (Becton Dickinson, Franklin Lakes, N.J.), the cell suspension was cleaned by gradient centrifugation through an 8% BSA (Sigma) layer (250×g, 10 min). A second filtering was performed using 70 μm and 40 μm nylon-mesh cell strainers (Becton Dickinson). The single cell suspension was counted on a hemocytometer using trypan blue exclusion, brought to a final density of 10^6 cells/ml and plated on poly-l-ornithine (Sigma) and laminin (Life Technologies) coated 12 mm glass coverslips (Fisher, Pittsburgh, PA) on 24-well plates (Becton Dickinson).
Throughout the experiments standard tissue culture techniques were used, in combination with the drug protocol. More specifically, cultures were incubated in 10% CO2 at 37° C. and fed every other day for 1, 5, 12, or 21 days with fresh NPMM (Bio Whittaker, San Diego, Calif.), followed by NPMM with or without various concentrations of FK506 (provided by Dr. A. Zeevi) and/or BDNF (5 ng/ml, Promega, Madison, Wis.).
In an attempt to identify the cell phenotype that is most affected by different treatments, the neuroglial cultures were immunostained for the neuronal marker MAP-2 and the astrocytic marker GFAP. After 7 days of treatment, cultures were washed with PBS and PBS with 0.05% Tween 20 (Sigma), fixed with 4% paraformaldehyde for 30 min and then incubated for 30 min with PBS with 0.2% BSA and 0.1% Triton X (Sigma). Without washing, cultures were incubated overnight at 4° C. with the primary antibodies mouse anti-MAP-2(1:500, Stemberger Monoclonals Inc., Baltimore, Md.) and rabbit anti-GFAP (1:100, Dako, Capinteria, Calif.). After thorough washing with PBS+0.05% Tween 20, a secondary antibody (FITC-conjugated goat anti- mouse and FITC- conjugated goat anti- rabbit) was applied for 2 hours (1:200, Jackson Immuno, West Grove, Pa.). All antibodies were diluted in common antibody diluent (ScyTek, Logan, Utah). RNase A (10 μg/ml; Sigma) was added during the secondary antibody incubation (20 min), followed by the nuclear stain propidium iodide (5 μg/ml, Sigma). Propidium iodide was used to allow quantification of cell numbers for each treatment condition, using LCM and ImageSpace software as described below. Coverslips were then washed and mounted on glass slides (Fisher) using gelvatol fluorescence mounting medium.
A quantitative assessment of the results (i.e., the numbers of cell nuclei stained with propidium iodide and areas covered by immunofluorescent marker staining) using laser confocal microscopy and ImageSpace software (Molecular Dynamics, Sunnyvale, Calif.) was carried out as follows: six randomly chosen fields were analyzed per coverslip (well). The Argon/Krypton laser confocal microscope 40× objective with oil immersion lens (Model 2001, Molecular Dynamics) was used. Images of 512×512 pixels were collected at a pixel size of […]. Vertical sections were acquired in order to define vertical borders for the collection of Z-series. The step size between adjacent sections was […]. FITC was excited with a wavelength of 488 nm and collected with a 530DF30 filter. Propidium iodide was excited with a wavelength of 568 nm and collected with a 590DFLP filter. […]

[2] = system: human lymphocyte proliferation; test: Human lymphocyte proliferation (potency check of the drug); format: cell-based; conditions: prior to administration to fetal cells

`C=CC[C@@H]1/C=C(\C)C[C@H](C)C[C@H](OC)[C@H]2O[C@@](O)(C(=O)C(=O)N3CCCC[C@H]3C(=O)O[C@H](/C(C)=C/[C@@H]3CC[C@@H](O)[C@H](OC)C3)[C@H](C)[C@@H](O)CC1=O)[C@H](C)C[C@@H]2OC` [FK506] was tested, and the “neurite outgrowth / neuronal processes extension” value [1] was “promote neurite outgrowth”, the MAP-2 expression ([1]; 5 ng/ml (6 nM), every other day for 7 days starting at DIC 12, vs 0.5, 1, 10, 50 ng/ml and untreated cultures) was “significant increase” and the cell attachment ([1]; 5 ng/ml applied at DIC 1 and 5) was “failed to attach adequately”. The “neurite sprouting (DIC 2-3)” value ([1]; 5 ng/ml applied at DIC 1 and 5, vs non-treated samples) was “initial acceleration”, the cell numbers ([1]; 5 ng/ml each, 7 days, starting at DIC 12) was “striking increase” and the “MAP-2 surface/cell number ratio” value ([1]; 5 ng/ml, 7 days of treatment starting at DIC 12, vs control) was “significant increase”. For the same molecule, the “GFAP surface/cell number ratio (GFAP expression)” value ([1]; 7 days of treatment, vs control) was “not statistically significant”, the number of neurons ([1]; BDNF: NeuN immunostaining, unpublished observations) was “increase” and the “size and number of cellular aggregates in culture” value ([1]; FK506-treated cultures) was “increased”. For the same molecule, the “absolute area covered by astrocytic marker GFAP” value ([1]; following treatment (data not shown)) was “significantly diminished”, the “number of cells and MAP-2 surface” value ([1]; higher concentrations of FK506, vs control) was “did not differ significantly from the control” and the “glial (astrocytic) processes appearance” value ([1]; vs untreated control) was “slightly sparser and thinner”. The “neuronal processes stained for MAP-2 (length, thickness)” value ([1]; vs untreated controls and other treatments) was “longer and thicker” and the “inhibitory effect on human lymphocyte proliferation” value [2] was “verified”.
